Measurements reported in paper PMC5327418.
Results are given in words; binding and its absence hold for the method and conditions named. In cells and extracts the contact can be indirect. These calls come from enrichment with a bait or labelling near it, and not all partners need be listed. Values belong to the binder of their own block, whether it stands above or below them.

Sequences of proteins named here, by UniProt entry; tags and fusion partners are left off.
UniProt P32569: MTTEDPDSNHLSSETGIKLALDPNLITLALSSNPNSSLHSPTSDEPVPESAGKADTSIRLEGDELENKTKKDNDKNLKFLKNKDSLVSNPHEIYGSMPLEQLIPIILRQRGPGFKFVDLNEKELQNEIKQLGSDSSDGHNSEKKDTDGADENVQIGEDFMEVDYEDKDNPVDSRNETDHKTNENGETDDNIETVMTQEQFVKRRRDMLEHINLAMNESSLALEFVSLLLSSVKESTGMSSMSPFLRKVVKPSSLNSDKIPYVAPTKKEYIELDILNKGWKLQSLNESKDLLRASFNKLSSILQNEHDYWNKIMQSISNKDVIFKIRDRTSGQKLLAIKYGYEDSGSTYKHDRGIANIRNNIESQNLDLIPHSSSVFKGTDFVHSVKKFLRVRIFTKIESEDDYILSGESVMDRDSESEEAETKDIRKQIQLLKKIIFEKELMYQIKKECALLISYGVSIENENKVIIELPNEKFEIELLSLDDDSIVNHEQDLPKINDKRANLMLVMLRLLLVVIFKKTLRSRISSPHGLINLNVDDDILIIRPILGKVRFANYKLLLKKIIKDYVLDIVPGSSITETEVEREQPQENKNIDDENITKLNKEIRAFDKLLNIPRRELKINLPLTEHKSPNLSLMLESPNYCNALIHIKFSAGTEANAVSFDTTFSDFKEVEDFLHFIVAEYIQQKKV

Target: Med17-HA (S. cerevisiae (endogenous in S288c)) (UniProt P32569)
Test: affinity purification with mass spectrometry; CoIP of Med17-HA on anti-HA magnetic beads from cryoground yeast lysate, 2 h at 4 °C; 20 mM HEPES pH 7.5, 300 mM KOAc, 10% glycerol, 0.01% NP-40, 6 mM MnSO4, 1 mM DTT, Cyanase nuclease; parallel control CoIP from 15N-labelled wild type cells, mixing after purification (MAP); GeLC-MS/MS, three biological replicates

- binding: binds
B1: Tf3b (protein, UniProt P29056 1-596)
chain: MPVCKNCHGTEFERDLSNANNDLVCKACGVVSEDNPIVSEVTFGETSAGAAVVQGSFIGAGQSHAAFGGSSALESREATLNNARRKLRAVSYALHIPEYITDAAFQWYKLALANNFVQGRRSQNVIASCLYVACRKEKTHHMLIDFSSRLQVSVYSIGATFLKMVKKLHITELPLADPSLFIQHFAEKLDLADKKIKVVKDAVKLAQRMSKDWMFEGRRPAGIAGACILLACRMNNLRRTHTEIVAVSHVAEETLQQRLNEFKNTKAAKLSVQKFRENDVEDGEARPPSFVKNRKKERKIKDSLDKEEMFQTSEEALNKNPILTQVLGEQELSSKEVLFYLKQFSERRARVVERIKATNGIDGENIYHEGSENETRKRKLSEVSIQNEHVEGEDKETEGTEEKVKKVKTKTSEEKKENESGHFQDAIDGYSLETDPYCPRNLHLLPTTDTYLSKVSDDPDNLEDVDDEELNAHLLNEEASKLKERIWIGLNADFLLEQESKRLKQEADIATGNTSVKKKRTRRRNNTRSDEPTKTVDAAAAIGLMSDLQDKSGLHAALKAAEESGDFTTADSVKNMLQKASFSKKINYDAIDGLFR

- binding: binds
B2: Utp22 (protein, UniProt P53254 1-1237)
chain: MATSVKRKASETSDQNIVKVQKKHSTQDSTTDNGSKENDHSSQAINERTVPEQENDESDTSPESNEVATNTAATRHNGKVTATESYDIHIARETAELFKSNIFKLQIDELLEQVKLKQKHVLKVEKFLHKLYDILQEIPDWEEKSLAEVDSFFKNKIVSVPFVDPKPIPQNTNYKFNYKKPDISLIGSFALKAGIYQPNGSSIDTLLTMPKELFEKKDFLNFRCLHKRSVYLAYLTHHLLILLKKDKLDSFLQLEYSYFDNDPLLPILRISCSKPTGDSLSDYNFYKTRFSINLLIGFPYKVFEPKKLLPNRNCIRIAQESKEQSLPATPLYNFSVLSSSTHENYLKYLYKTKKQTESFVEATVLGRLWLQQRGFSSNMSHSGSLGGFGTFEFTILMAALLNGGGINSNKILLHGFSSYQLFKGVIKYLATMDLCHDGHLQFHSNPENSSSSPASKYIDEGFQTPTLFDKSTKVNILTKMTVSSYQILKEYAGETLRMLNNVVQDQFSNIFLTNISRFDNLKYDLCYDVQLPLGKYNNLETSLAATFGSMERVKFITLENFLAHKITNVARYALGDRIKYIQIEMVGQKSDFPITKRKVYSNTGGNHFNFDFVRVKLIVNPSECDKLVTKGPAHSETMSTEAAVFKNFWGIKSSLRRFKDGSITHCCVWSTSSSEPIISSIVNFALQKHVSKKAQISNETIKKFHNFLPLPNLPSSAKTSVLNLSSFFNLKKSFDDLYKIIFQMKLPLSVKSILPVGSAFRYTSLCQPVPFAYSDPDFFQDVILEFETSPKWPDEITSLEKAKTAFLLKIQEELSANSSTYRSFFSRDESIPYNLEIVTLNILTPEGYGFKFRVLTERDEILYLRAIANARNELKPELEATFLKFTAKYLASVRHTRTLENISHSYQFYSPVVRLFKRWLDTHLLLGHITDELAELIAIKPFVDPAPYFIPGSLENGFLKVLKFISQWNWKDDPLILDLVKPEDDIRDTFETSIGAGSELDSKTMKKLSERLTLAQYKGIQMNFTNLRNSDPNGTHLQFFVASKNDPSGILYSSGIPLPIATRLTALAKVAVNLLQTHGLNQQTINLLFTPGLKDYDFVVDLRTPIGLKSSCGILSATEFKNITNDQAPSNFPENLNDLSEKMDPTYQLVKYLNLKYKNSLILSSRKYIGVNGGEKGDKNVITGLIKPLFKGAHKFRVNLDCNVKPVDDENVILNKEAIFHEIAAFGNDMVINFETD

- binding: binds
B3: Rpc2 (protein, UniProt P22276 1-1149)
chain: MVAATKRRKTHIHKHVKDEAFDDLLKPVYKGKKLTDEINTAQDKWHLLPAFLKVKGLVKQHLDSFNYFVDTDLKKIIKANQLILSDVDPEFYLKYVDIRVGKKSSSSTKDYLTPPHECRLRDMTYSAPIYVDIEYTRGRNIIMHKDVEIGRMPIMLRSNKCILYDADESKMAKLNECPLDPGGYFIVNGTEKVILVQEQLSKNRIIVEADEKKGIVQASVTSSTHERKSKTYVITKNGKIYLKHNSIAEEIPIAIVLKACGILSDLEIMQLVCGNDSSYQDIFAVNLEESSKLDIYTQQQALEYIGAKVKTMRRQKLTILQEGIEAIATTVIAHLTVEALDFREKALYIAMMTRRVVMAMYNPKMIDDRDYVGNKRLELAGQLISLLFEDLFKKFNNDFKLSIDKVLKKPNRAMEYDALLSINVHSNNITSGLNRAISTGNWSLKRFKMERAGVTHVLSRLSYISALGMMTRISSQFEKSRKVSGPRALQPSQFGMLCTADTPEGEACGLVKNLALMTHITTDDEEEPIKKLCYVLGVEDITLIDSASLHLNYGVYLNGTLIGSIRFPTKFVTQFRHLRRTGKVSEFISIYSNSHQMAVHIATDGGRICRPLIIVSDGQSRVKDIHLRKLLDGELDFDDFLKLGLVEYLDVNEENDSYIALYEKDIVPSMTHLEIEPFTILGAVAGLIPYPHHNQSPRNTYQCAMGKQAIGAIAYNQFKRIDTLLYLMTYPQQPMVKTKTIELIDYDKLPAGQNATVAVMSYSGYDIEDALVLNKSSIDRGFGRCETRRKTTTVLKRYANHTQDIIGGMRVDENGDPIWQHQSLGPDGLGEVGMKVQSGQIYINKSVPTNSADAPNPNNVNVQTQYREAPVIYRGPEPSHIDQVMMSVSDNDQALIKVLLRQNRRPELGDKFSSRHGQKGVCGIIVKQEDMPFNDQGIVPDIIMNPHGFPSRMTVGKMIELISGKAGVLNGTLEYGTCFGGSKLEDMSKILVDQGFNYSGKDMLYSGITGECLQAYIFFGPIYYQKLKHMVLDKMHARARGPRAVLTRQPTEGRSRDGGLRLGEMERDCVIAYGASQLLLERLMISSDAFEVDVCDKCGLMGYSGWCTTCKSAENIIKMTIPYAAKLLFQELLSMNIAPRLRLEDIFQQ

- binding: binds
B4: Rpc1 (protein, UniProt P04051 1-1460)
chain: MKEVVVSETPKRIKGLEFSALSAADIVAQSEVEVSTRDLFDLEKDRAPKANGALDPKMGVSSSSLECATCHGNLASCHGHFGHLKLALPVFHIGYFKATIQILQGICKNCSAILLSETDKRQFLHELRRPGVDNLRRMGILKKILDQCKKQRRCLHCGALNGVVKKAAAGAGSAALKIIHDTFRWVGKKSAPEKDIWVGEWKEVLAHNPELERYVKRCMDDLNPLKTLNLFKQIKSADCELLGIDATVPSGRPETYIWRYLPAPPVCIRPSVMMQDSPASNEDDLTVKLTEIVWTSSLIKAGLDKGISINNMMEHWDYLQLTVAMYINSDSVNPAMLPGSSNGGGKVKPIRGFCQRLKGKQGRFRGNLSGKRVDFSGRTVISPDPNLSIDEVAVPDRVAKVLTYPEKVTRYNRHKLQELIVNGPNVHPGANYLLKRNEDARRNLRYGDRMKLAKNLQIGDVVERHLEDGDVVLFNRQPSLHRLSILSHYAKIRPWRTFRLNECVCTPYNADFDGDEMNLHVPQTEEARAEAINLMGVKNNLLTPKSGEPIIAATQDFITGSYLISHKDSFYDRATLTQLLSMMSDGIEHFDIPPPAIMKPYYLWTGKQVFSLLIKPNHNSPVVINLDAKNKVFVPPKSKSLPNEMSQNDGFVIIRGSQILSGVMDKSVLGDGKKHSVFYTILRDYGPQEAANAMNRMAKLCARFLGNRGFSIGINDVTPADDLKQKKEELVEIAYHKCDELITLFNKGELETQPGCNEEQTLEAKIGGLLSKVREEVGDVCINELDNWNAPLIMATCGSKGSTLNVSQMVAVVGQQIISGNRVPDGFQDRSLPHFPKNSKTPQSKGFVRNSFFSGLSPPEFLFHAISGREGLVDTAVKTAETGYMSRRLMKSLEDLSCQYDNTVRTSANGIVQFTYGGDGLDPLEMEGNAQPVNFNRSWDHAYNITFNNQDKGLLPYAIMETANEILGPLEERLVRYDNSGCLVKREDLNKAEYVDQYDAERDFYHSLREYINGKATALANLRKSRGMLGLLEPPAKELQGIDPDETVPDNVKTSVSQLYRISEKSVRKFLEIALFKYRKARLEPGTAIGAIGAQSIGEPGTQMTLKTFHFAGVASMNVTLGVPRIKEIINASKVISTPIINAVLVNDNDERAARVVKGRVEKTLLSDVAFYVQDVYKDNLSFIQVRIDLGTIDKLQLELTIEDIAVAITRASKLKIQASDVNIIGKDRIAINVFPEGYKAKSISTSAKEPSENDVFYRMQQLRRALPDVVVKGLPDISRAVINIRDDGKRELLVEGYGLRDVMCTDGVIGSRTTTNHVLEVFSVLGIEAARYSIIREINYTMSNHGMSVDPRHIQLLGDVMTYKGEVLGITRFGLSKMRDSVLQLASFEKTTDHLFDAAFYMKKDAVEGVSECIILGQTMSIGTGSFKVVKGTNISEKDLVPKRCLFESLSNEAALKAN
